This is an account of results in doi:10.1101/289702.

Chains of the proteins cited; added tags and fusions are not shown.
UniProt P38486: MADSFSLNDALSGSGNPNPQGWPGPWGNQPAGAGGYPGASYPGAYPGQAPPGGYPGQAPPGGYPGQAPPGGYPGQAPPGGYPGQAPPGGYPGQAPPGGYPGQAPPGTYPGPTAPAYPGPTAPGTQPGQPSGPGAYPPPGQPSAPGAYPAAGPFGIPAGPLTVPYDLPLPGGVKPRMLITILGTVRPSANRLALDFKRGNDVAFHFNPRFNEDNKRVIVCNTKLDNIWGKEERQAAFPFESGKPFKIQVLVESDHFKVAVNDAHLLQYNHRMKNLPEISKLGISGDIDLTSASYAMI

In the assay the target is T1, cystinosin-GFP fusion protein (UniProt O60931).
T1 sequence: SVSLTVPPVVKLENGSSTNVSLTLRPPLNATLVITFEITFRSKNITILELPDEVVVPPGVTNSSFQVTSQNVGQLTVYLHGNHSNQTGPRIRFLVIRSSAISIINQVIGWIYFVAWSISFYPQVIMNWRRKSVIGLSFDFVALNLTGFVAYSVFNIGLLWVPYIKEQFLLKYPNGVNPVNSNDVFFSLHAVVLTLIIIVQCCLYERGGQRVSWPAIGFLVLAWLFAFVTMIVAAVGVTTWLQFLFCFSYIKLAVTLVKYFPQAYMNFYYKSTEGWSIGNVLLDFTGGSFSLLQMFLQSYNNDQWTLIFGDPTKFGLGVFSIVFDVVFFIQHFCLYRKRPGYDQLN
Put plainly: co-IP.

These are yes or no findings as the source states them, for the method shown. Binding seen in cells or lysates may run through a third protein. Some results given as binding are weak or reduced against the parent protein; the word gives no strength. Tags and fused reporters may be left off the sequences shown.

Turning to galectin-3 (from UniProt P38486 1-296), the binding result is “binds”.
